Source: doi:10.1101/808311
Read-outs that look alike come from different tables or passages of the source. No constants are given. Whether binding was seen depends on the method and setting. In cells and extracts the contact can be indirect. Some binding calls cover weakened binding; strength is not graded here. For part of these data: Sequences can lack the tags named with a protein.

Chains of the proteins cited; added tags and fusions are not shown. Residues count along the entry.
UniProt Q9Y375, residues 25-327: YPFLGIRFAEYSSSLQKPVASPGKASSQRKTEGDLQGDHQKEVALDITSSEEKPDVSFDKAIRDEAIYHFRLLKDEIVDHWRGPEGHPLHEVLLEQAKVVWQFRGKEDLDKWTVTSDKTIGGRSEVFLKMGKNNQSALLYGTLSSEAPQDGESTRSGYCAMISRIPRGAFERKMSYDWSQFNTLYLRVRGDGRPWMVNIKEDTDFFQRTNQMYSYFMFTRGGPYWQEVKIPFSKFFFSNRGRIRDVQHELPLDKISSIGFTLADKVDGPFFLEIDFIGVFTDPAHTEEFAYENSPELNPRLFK
UniProt P03886: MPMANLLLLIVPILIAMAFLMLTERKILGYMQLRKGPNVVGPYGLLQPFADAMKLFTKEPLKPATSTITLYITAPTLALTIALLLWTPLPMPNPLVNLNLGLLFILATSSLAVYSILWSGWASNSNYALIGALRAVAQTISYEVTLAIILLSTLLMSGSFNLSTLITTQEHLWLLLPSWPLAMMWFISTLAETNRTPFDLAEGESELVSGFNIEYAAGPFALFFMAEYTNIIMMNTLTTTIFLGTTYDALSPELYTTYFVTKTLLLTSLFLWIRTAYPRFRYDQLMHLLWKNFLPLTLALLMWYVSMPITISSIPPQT
UniProt P03891: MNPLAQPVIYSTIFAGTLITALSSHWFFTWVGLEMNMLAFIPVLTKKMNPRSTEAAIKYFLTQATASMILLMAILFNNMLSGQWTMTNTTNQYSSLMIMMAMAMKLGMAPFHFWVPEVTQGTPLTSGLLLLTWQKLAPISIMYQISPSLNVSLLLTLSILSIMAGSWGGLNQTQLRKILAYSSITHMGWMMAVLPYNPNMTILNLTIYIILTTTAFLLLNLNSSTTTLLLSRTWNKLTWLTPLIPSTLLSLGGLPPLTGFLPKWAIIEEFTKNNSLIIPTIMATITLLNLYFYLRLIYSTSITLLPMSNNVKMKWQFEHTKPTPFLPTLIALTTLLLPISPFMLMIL
UniProt P03897: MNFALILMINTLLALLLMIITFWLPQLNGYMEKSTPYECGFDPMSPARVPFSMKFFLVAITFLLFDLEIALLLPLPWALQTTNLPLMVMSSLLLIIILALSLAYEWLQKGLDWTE
UniProt P03901: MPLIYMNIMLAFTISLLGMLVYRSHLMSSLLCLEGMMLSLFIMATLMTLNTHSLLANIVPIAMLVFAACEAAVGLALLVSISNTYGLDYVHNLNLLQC

T1: ECSIT (endogenous, 143B TK- cells) (human (endogenous in 143B TK-)) (UniProt Q9BQ95)
T1 sequence: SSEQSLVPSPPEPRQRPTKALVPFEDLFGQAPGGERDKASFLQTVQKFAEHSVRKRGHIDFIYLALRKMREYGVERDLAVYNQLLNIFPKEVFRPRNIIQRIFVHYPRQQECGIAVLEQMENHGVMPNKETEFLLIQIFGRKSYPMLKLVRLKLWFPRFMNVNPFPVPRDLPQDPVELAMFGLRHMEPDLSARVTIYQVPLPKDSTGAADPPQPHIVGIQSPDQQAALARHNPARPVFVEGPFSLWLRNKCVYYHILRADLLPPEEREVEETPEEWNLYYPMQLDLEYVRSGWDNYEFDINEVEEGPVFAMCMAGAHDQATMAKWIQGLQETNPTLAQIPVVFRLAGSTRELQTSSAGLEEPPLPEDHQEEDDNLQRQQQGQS

T2: COA1 with a C-terminal Flag tag (human) (UniProt Q9GZY4)
T2 sequence: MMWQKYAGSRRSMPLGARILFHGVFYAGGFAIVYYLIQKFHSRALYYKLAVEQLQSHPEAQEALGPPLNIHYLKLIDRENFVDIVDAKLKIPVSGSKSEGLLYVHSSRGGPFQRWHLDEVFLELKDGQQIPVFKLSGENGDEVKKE


Tests used:
[1] = biological target: NDUFAF1 (endogenous, 143B TK- cells) (human (endogenous in 143B TK-)) (UniProt Q9Y375); assay: co-IP
[2] = biological target: T1, ECSIT (endogenous, 143B TK- cells) (human (endogenous in 143B TK-)); assay: co-IP
[3] = biological target: NDUFAF1 (endogenous, 143B TK- cells) (human (endogenous in 143B TK-)) (UniProt Q9Y375); assay: cross-linking
[4] = biological target: T1, ECSIT (endogenous, 143B TK- cells) (human (endogenous in 143B TK-)); assay: cross-linking
[5] = biological target: T2, COA1 with a C-terminal Flag tag (human); assay: co-IP
[6] = biological target: T2, COA1 with a C-terminal Flag tag (human); assay: co-IP; remark: listed apart in the source
[7] = biological target: T2, COA1 with a C-terminal Flag tag (human); assay: co-IP; remark: listed apart in the source

| Molecule | binding [1] | binding [2] | binding [5] | further results |
| --- | --- | --- | --- | --- |
| ND1, newly synthesised mtDNA-encoded complex I subunit (143B TK- cells) (from UniProt P03886 1-318) | binds | binds | – | – |
| ND2, newly synthesised mtDNA-encoded complex I subunit (143B TK- cells) (from UniProt P03891 1-347) | binds | binds | – | binding [3]: binds; binding [4]: binds |
| ND2, newly synthesised mtDNA-encoded complex I subunit (HEK293T-derived cells) (from UniProt P03891 1-347) | – | – | binds | – |
| ND3, newly synthesised mtDNA-encoded complex I subunit (143B TK- cells) (from UniProt P03897 1-115) | binds | binds | – | – |
| ND3, newly synthesised mtDNA-encoded complex I subunit (HEK293T-derived cells) (from UniProt P03897 1-115) | – | – | binds | – |
| ND4L, newly synthesised mtDNA-encoded complex I subunit (143B TK- cells) (from UniProt P03901 1-98) | binds | binds | – | – |
| ND4L, newly synthesised mtDNA-encoded complex I subunit (HEK293T-derived cells) (from UniProt P03901 1-98) | – | – | binds | – |
| ACAD9 (endogenous, HEK293T-derived cells) (protein, UniProt Q9H845 38-621) AFAKELFLGKIKKKEVFPFPEVSQDELNEINQFLGPVEKFFTEEVDSRKIDQEGKIPDETLEKLKSLGLFGLQVPEEYGGLGFSNTMYSRLGEIISMDGSITVTLAAHQAIGLKGIILAGTEEQKAKYLPKLASGEHIAAFCLTEPASGSDAASIRSRATLSEDKKHYILNGSKVWITNGGLANIFTVFAKTEVVDSDGSVKDKITAFIVERDFGGVTNGKPEDKLGIRGSNTCEVHFENTKIPVENILGEVGDGFKVAMNILNSGRFSMGSVVAGLLKRLIEMTAEYACTRKQFNKRLSEFGLIQEKFALMAQKAYVMESMTYLTAGMLDQPGFPDCSIEAAMVKVFSSEAAWQCVSEALQILGGLGYTRDYPYERILRDTRILLIFEGTNEILRMYIALTGLQHAGRILTTRIHELKQAKVSTVMDTVGRRLRDSLGRTVDLGLTGNHGVVHPSLADSANKFEENTYCFGRTVETLLLRFGKTIMEEQLVLKRVANILINLYGMTAVLSRASRSIRIGLRNHDHEVLLANTFCVEAYLQNLFSLSQLDKYAPENLDEQIKKVSQQILEKRAYICAHPLDRTC | – | – | – | binding [6]: binds; binding [7]: binds |
